# Reference: PubChem BioAssay AID493014 (National Center for Advancing Translational Sciences (NCATS), 2011)
# This is one part of the list. Further columns of the screen follow, without active or inactive calls. Compounds called inactive in the main read-out are mostly missing here. Words in brackets tell the shape of the fitted curve; partial curves, single points and poor fits give uncertain potencies.
# Test: qHTS Assay to Find Inhibitors of Chronic Active B-Cell Receptor Signaling
# Conditions: ABC-DLBCL IkBa-CBG/CBR reporter, luminescence ratio (green luciferase fused to IkBa over red control in TMD8 lymphoma cells), 4 h
# Outline: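 Doxycycline induced both beetle luciferases in TMD8 lymphoma cells; IKK-driven degradation limits the IkappaBalpha-fused green signal, while red luminescence normalises for cell number and nonspecific effects. Compounds tested up to 46 uM, 4 hrs.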
# [1] = measured here: CBR red luminescence, cell number
# [2] = measured here: IkBa-CBG green luminescence
Structure (SMILES),AC50 [1],AC50 [2]
COc1ccc(C(=O)NNC(=O)CCn2nnc(-c3ccc(Cl)cc3)n2)cc1OC,"20 µM [falling, single point]",
CN(C)CCC(=O)c1ccc2c(c1)OCO2,"14.1 µM [falling, partial curve]",
COc1ccc(NC(=O)c2cc(-c3ccc4c(c3)OCO4)on2)cc1,"0.501 µM [falling, full curve]",
C=C(C)Cn1c(CCNC(=O)C(C)C)nc2ccccc21,"0.82 µM [rising, full curve, poor fit]",
Cc1cc(C(=O)COC(=O)c2ccc(O)cc2)c(C)n1CC(F)(F)F,"7.31 µM [falling, partial curve, poor fit]",
CCOC(=O)Cc1csc(NC(NC(=O)OCC)(C(F)(F)F)C(F)(F)F)n1,"29.1 µM [falling, single point]",
NC(=O)C1CCN(C(=O)CNC(=O)c2ccc(Br)o2)CC1,"0.651 µM [falling, partial curve, poor fit]",
COc1cc(/C=N/Nc2ccc(S(N)(=O)=O)cc2[N+](=O)[O-])cc(OC)c1O,"22.4 µM [falling, single point]",
O=C(c1cc2c(s1)-c1ccccc1OC2)N1CCCC1,"20.6 µM [falling, single point]",
CO/N=C/c1ccc(Oc2ccc(C)cc2)nc1,"15.8 µM [rising, partial curve, poor fit]",
CCC1=NN(C(=O)c2ccccc2Br)C(O)(c2ccc(Br)cc2)C1 (stereo unspecified),"14.1 µM [falling, partial curve, poor fit]",
CC(=O)Oc1ccc(C2(C)CC(C)(C)Oc3cc(OC(C)=O)ccc32)c(OC(C)=O)c1 (stereo unspecified),"10 µM [falling, partial curve, poor fit]",
OCCN1CCN(C(=S)c2ccc(Cl)cc2)CC1,"0.13 µM [rising, full curve, poor fit]",
COc1cc(NC(=O)c2cccc([N+](=O)[O-])c2C)ccc1NC(=O)c1ccco1,"10.3 µM [rising, partial curve, poor fit]",
O=C(CCNC(=O)c1ccc(Cl)cc1)NCCC1=CCCCC1,"20.6 µM [rising, single point]",
COc1ccc(Cl)c2sc(NC(=O)C3=COCCO3)nc12,"1.3 µM [falling, full curve]","0.058 µM [rising, full curve, poor fit]"
CCC(CO)Oc1cc(NCc2ccccc2)c2ncn(C3CCCC3)c2c1 (stereo unspecified),"3.26 µM [rising, partial curve]",
C(=N\Nc1nc2ccccc2[nH]1)/c1cccc2nccnc12,"1.78 µM [falling, full curve]",
CC(C)(C)C1CCc2c(sc(NC(=O)C3CC=CCC3C(=O)O)c2C#N)C1 (stereo unspecified),"32.6 µM [falling, partial curve, poor fit]",
COc1cc(OC)cc(C(=O)NNC(=O)Cc2ccc(OC)c(S(=O)(=O)N3CCOCC3)c2)c1,"29.1 µM [falling, single point]",
CCOC(=O)N1CCN(C(=O)CSc2nnc(-c3cc(OC)ccc3OC)o2)CC1,"20.6 µM [rising, single point]",

Structure (SMILES),AC50 [1],AC50 [2]
Nc1ccc(-c2nnc(-c3ccc(N)cc3)o2)cc1,"15.8 µM [falling, single point]",
C=CC[C@@H](Cc1ccc(F)cc1)C(=O)OC[C@@H]1CCCN1C(=O)[C@H](CC=C)CC(=O)N[C@H](CO)Cc1ccccc1,"29.1 µM [falling, single point]",
Cc1ccc(Cn2nnc3c(=O)[nH]c(C4CCCN(C(=O)Nc5ccc(F)cc5F)C4)nc32)cc1 (stereo unspecified),"20 µM [falling, partial curve, poor fit]",
Nc1nn2cc(-c3ccccc3)nc2c2ccccc12,"2.24 µM [falling, full curve]",
COc1ccc(C2(C)NC(=O)N(CC(=O)Nc3ccc(-c4nc5ccc(C)cc5s4)cc3)C2=O)cc1 (stereo unspecified),"1.58 µM [rising, partial curve]",
CCCCn1c(-c2sccc2C)n[nH]c1=S,"35.5 µM [rising, single point]",
CCOc1ccc(NC(=O)[C@H](C)NC(=O)C2CC(=O)N(c3ccc(OC)cc3)C2)cc1 (stereo partly specified),"0.112 µM [rising, full curve]",
Cc1c(OC(C)C(=O)NCC2CCC(C(=O)O)CC2)ccc2c(-c3ccccc3)cc(=O)oc12 (stereo unspecified),"11.2 µM [rising, single point]",
CCC(=O)N1CCc2cc(Br)cc(S(=O)(=O)N3CCN(C(=O)c4ccco4)CC3)c21,"25.9 µM [rising, partial curve]",
COc1ccccc1C1CCN(c2cc(O)ccc2[N+](=O)[O-])CC1,"15.8 µM [falling, single point]",
CCCCCOC(=O)Nc1nnc(CCC)s1,"2 µM [rising, partial curve, poor fit]",
Cc1c(N=C2C(=O)Nc3ccccc32)c(=O)n(-c2ccccc2)n1C,"18.4 µM [falling, single point]",
CCn1c(C)c(C)c2cc(C(=O)NCCCN3CCOCC3)ccc21,"6.31 µM [rising, full curve, poor fit]",
Cc1ccc(-n2nc3c(=O)n(CCCC(=O)NCC(C)c4ccccc4)nc(C)c3c2C)cc1 (stereo unspecified),"12.6 µM [falling, single point]",
O=C(NN=C1CCCC1)c1ccn[nH]1,"18.4 µM [falling, partial curve, poor fit]",
CN1c2ccc(C=O)c3c(C=O)ccc(c23)N(C)C1(C)C,"7.94 µM [falling, partial curve]",
Cc1cccc(NC(=O)N2CCc3ccccc3C2)c1C,"12.6 µM [falling, partial curve]",
O=C(COc1cccc(F)c1)Oc1ccc(C(=O)c2ccccc2)cc1,"0.731 µM [rising, partial curve, poor fit]",
O=C(CCN1C(=O)c2ccccc2C1=O)Nc1ccc(-c2nc3ccccc3s2)cc1,"13 µM [rising, partial curve, poor fit]",
Cc1ccc2sc(NNC(=O)c3cc(=O)c4ccccc4o3)nc2c1C,"1.26 µM [falling, full curve]",
c1ccc2c(CCNc3ncnc4nc[nH]c34)c[nH]c2c1,"10.3 µM [falling, partial curve]",

# Rewritten bar-delimited: entries from further up.
Structure (SMILES) | AC50 [1] | AC50 [2]
O=C(NN=C1CCCC1)c1ccn[nH]1 | 18.4 µM [falling, partial curve, poor fit] | 
CN1c2ccc(C=O)c3c(C=O)ccc(c23)N(C)C1(C)C | 7.94 µM [falling, partial curve] | 
Cc1cccc(NC(=O)N2CCc3ccccc3C2)c1C | 12.6 µM [falling, partial curve] | 
O=C(COc1cccc(F)c1)Oc1ccc(C(=O)c2ccccc2)cc1 | 0.731 µM [rising, partial curve, poor fit] | 
O=C(CCN1C(=O)c2ccccc2C1=O)Nc1ccc(-c2nc3ccccc3s2)cc1 | 13 µM [rising, partial curve, poor fit] | 

# More results.

Structure (SMILES),AC50 [1],AC50 [2]
COc1ccccc1/C=N/NC(=O)c1ccc(-c2ccccc2)cc1,"5.8 µM [falling, partial curve, poor fit]",
Clc1ccc(-c2nnc(C3CCCCC3)o2)cc1,"0.651 µM [rising, partial curve, poor fit]",
O=C(NCc1cccs1)c1cc(-c2ccccc2)on1,"1.84 µM [falling, full curve]",
OCCSc1nc(-c2ccccc2)nc2ccc(F)cc12,"10 µM [falling, single point]","2.82 µM [rising, partial curve, poor fit]"
CCOc1ccccc1/C=C/c1cc(C(=O)O)c2ccccc2n1,"2.82 µM [falling, single point]",
Cc1ccc(NC(=O)Cc2sc(C)nc2-c2ccc(C)cc2)cc1,"0.231 µM [rising, full curve, poor fit]",
Cc1ccc(Nc2nc(C(=O)N3CCC(C(=O)N4CCN(C)CC4)CC3)cs2)cc1,"12.6 µM [rising, partial curve]",
COc1cc(/C=N/NC(=O)c2cccs2)ccc1OCc1ccccc1,"35.5 µM [falling, single point]",
CC(=O)N1CSCC1C(=O)N1CCN(c2ccc(N3CCOCC3)nn2)CC1 (stereo unspecified),"3.26 µM [falling, single point]",
COC(=O)[C@@]12CCCCN1[C@H](c1ccc(-c3ccc(Cl)c(Cl)c3)c(OC)c1)[C@H]1C(=O)N(C)C(=O)[C@H]12,"13 µM [rising, partial curve, poor fit]",
O=C(NC(=S)Nc1ccc(F)cc1)c1ccc2c(c1)OCCO2,"35.5 µM [falling, single point]",
Cc1ccc(-c2ccc(CCC(=O)O)n2Cc2ccco2)cc1,,"23.1 µM [rising, single point]"
COc1cccc(N2CC(C(=O)NCc3n[nH]c(=O)c4ccccc34)CC2=O)c1 (stereo unspecified),"25.9 µM [falling, single point]",
COc1ccc(NS(=O)(=O)c2cc(C)ccc2NC(=O)c2cc(C)oc2C)cc1,"18.4 µM [falling, single point]",
Nc1ncnc2c1ncn2[C@@H]1O[C@H](CNCc2ccccc2)[C@@H](O)[C@H]1O,"32.6 µM [rising, single point]",
O=C(Nc1ccc(Cl)cc1)NC1CCCc2ccccc21 (stereo unspecified),"0.891 µM [falling, full curve, poor fit]",
CCCc1nnc(NC(=O)C(C)N2C(=O)C3C4C=CC(C4)C3C2=O)s1 (stereo unspecified),"0.116 µM [rising, full curve]",
O=[N+]([O-])c1cc(C(F)(F)F)ccc1NCCc1c[nH]c2ccccc12,"1.46 µM [rising, partial curve, poor fit]","18.4 µM [rising, partial curve, poor fit]"
CCOc1cccc(C(=O)NC(=S)Nc2cccc(C)c2)c1,"7.31 µM [falling, partial curve, poor fit]",
Fc1cccc(Nc2ncnc3c2cnn3-c2ccccc2)c1,"8.91 µM [falling, partial curve, poor fit]",
COc1ccc(C)cc1NC(=O)C(OC(=O)Cn1cnc2c1c(=O)n(C)c(=O)n2C)c1ccccc1 (stereo unspecified),"9.2 µM [rising, partial curve, poor fit]",
